Reference: article PMC9715632
These are yes or no findings as the source states them, for the method shown. In cells and extracts the contact can be indirect. Some results given as binding are weak or reduced against the parent protein; the word gives no strength.

Chains of the proteins cited; added tags and fusions are not shown.
UniProt Q9BTU6: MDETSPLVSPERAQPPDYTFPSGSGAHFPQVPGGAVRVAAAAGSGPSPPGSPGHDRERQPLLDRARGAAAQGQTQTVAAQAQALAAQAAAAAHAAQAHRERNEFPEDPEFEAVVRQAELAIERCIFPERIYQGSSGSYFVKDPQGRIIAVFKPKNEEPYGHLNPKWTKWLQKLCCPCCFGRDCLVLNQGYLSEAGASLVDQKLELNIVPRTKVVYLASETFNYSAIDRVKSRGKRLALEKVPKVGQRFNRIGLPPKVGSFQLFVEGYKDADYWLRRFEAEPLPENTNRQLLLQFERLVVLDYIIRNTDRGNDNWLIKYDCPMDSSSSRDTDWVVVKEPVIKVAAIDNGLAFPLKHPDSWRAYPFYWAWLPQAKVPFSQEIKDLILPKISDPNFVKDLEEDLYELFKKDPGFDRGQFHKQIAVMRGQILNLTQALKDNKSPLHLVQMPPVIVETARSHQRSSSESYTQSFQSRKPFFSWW

Biological target: T1, RAB22A (human (endogenous in HeLa)) (UniProt Q9UL26)
T1 sequence: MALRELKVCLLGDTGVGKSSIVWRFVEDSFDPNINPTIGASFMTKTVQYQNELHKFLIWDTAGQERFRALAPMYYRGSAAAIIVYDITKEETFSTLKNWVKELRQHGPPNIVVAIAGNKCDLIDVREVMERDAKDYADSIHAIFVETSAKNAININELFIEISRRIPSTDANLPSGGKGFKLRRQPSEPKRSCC
Experiment: co-IP; endogenous proteins, HeLa lysate, anti-RAB22A antibody or control IgG with protein A or A/G agarose, RIPA buffer, 6 h at 4 °C, five washes

- binding: binds
Substance: PI4K2A (from UniProt Q9BTU6 1-479) (enzyme)
